# Test results: PubChem BioAssay AID1487 (National Center for Advancing Translational Sciences (NCATS), 2009)
# This is one part of the list. Further columns of the screen follow, without active or inactive calls. Compounds called inactive in the main read-out are mostly missing here. Words in brackets tell the shape of the fitted curve; partial curves, single points and poor fits give uncertain potencies.
# Test: qHTS Assay for Modulators of Lamin A Splicing
# Details: HeLa LMNA splicing GFP/RFP minigene ratio, 48 h
# Summary of the method: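 S3 HeLa cells stably expressing lamin A-EGFP splicing minigene plus DsRed2, 600 cells/well, 48 h compound exposure at 37C. Laser-scanning cytometry; analysed as GFP (500-530 nm)/RFP (575-640 nm) total intensity ratio; 0.5% DMSO vehicle.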
# [1] = measured here: RFP viability control channel
# [2] = measured here: GFP splicing reporter channel
SMILES,AC50 [1],AC50 [2]
S=C(NCCC1=CCCCC1)NCc1ccco1,"2.24 µM [rising, partial curve]",–
COc1ccc(NC(=O)C(c2ccc(OC)cc2)N(C)C(=O)CC2NC(=O)NC2=O)cc1 (stereo unspecified),"3.98 µM [rising, single point]",–
Nc1ccccc1NC1CCCCC1,–,"35.5 µM [falling, single point]"
COc1ccc(OC)c(NS(=O)(=O)c2ccc(N3CCCC3=O)cc2)c1,–,"11.2 µM [rising, single point]"
CCCC(=O)Nc1nc(-c2ccc3c(c2)OCCO3)cs1,"14.1 µM [rising, single point]",–
COc1ccc(OCCSc2nnc(-c3ccoc3C)n2C)cc1,"31.6 µM [rising, single point]","22.4 µM [rising, single point]"
Cc1ccccc1-n1c(SCC(=O)c2c(N)n(C)c(=O)n(C)c2=O)nc2sc3c(c2c1=O)CCCC3,"3.98 µM [rising, single point]",–
CCOc1ccc(NC(C)C(=O)N/N=C/c2cccs2)cc1 (stereo unspecified),"10 µM [rising, partial curve]","17.8 µM [rising, single point]"
CC(=O)NC1=NN(C(C)=O)C(C)(c2cccs2)S1 (stereo unspecified),"6.31 µM [rising, full curve]",–
COCc1ccc(CN2CCc3c([nH]c4ccccc34)C2C(C)(C)C)o1 (stereo unspecified),"20 µM [rising, single point]","35.5 µM [rising, single point]"
COc1ccc(NC(=O)Nc2ccc(C(C)C)cc2)cc1,–,"35.5 µM [falling, single point]"
CS(=O)(=O)CCCCN=C=S,"12.6 µM [falling, partial curve]","5.01 µM [falling, partial curve]"
CCOc1ccc(Oc2ccc(C(F)(F)F)cc2N)cc1,"7.08 µM [rising, partial curve, poor fit]",–
O=C(c1cc(-c2ccccc2)on1)N1CCN(Cc2ccc3c(c2)OCO3)CC1,"35.5 µM [rising, single point]","22.4 µM [rising, single point]"
Cc1onc(-c2ccccc2Cl)c1C(=O)N(C)C1CCCCC1,"35.5 µM [rising, single point]",–
CC(C)c1ccc(NC(=O)CSc2nc(=O)n(Cc3cccnc3)c3c2CCC3)cc1,–,"20 µM [falling, partial curve, poor fit]"
CCCCN(CCCC)CCNC(=O)c1cc(=O)[nH]c2ccc(S(=O)(=O)N3CCCCCC3)cc12,–,"0.794 µM [falling, full curve, poor fit]"
COc1ccc(-n2c(O)c(/C=N/Nc3nc(C)cc(C)n3)c3ccccc3c2=O)cc1OC,–,"25.1 µM [falling, partial curve]"
CC1Cc2cc(-c3csc(NC(=O)Cc4ccccc4)n3)ccc2N1S(C)(=O)=O (stereo unspecified),–,"2.51 µM [rising, full curve]"
N#Cc1cc(N)c(Nc2ccccc2)cc1C#N,"35.5 µM [rising, single point]","35.5 µM [rising, single point]"

# Some values from above:
# For AC50 [1], CCOc1ccc(NC(C)C(=O)N/N=C/c2cccs2)cc1 (stereo unspecified) has the entry 10 µM [rising, partial curve]
# For AC50 [2], COc1ccc(OCCSc2nnc(-c3ccoc3C)n2C)cc1 has the entry 22.4 µM [rising, single point]
# For AC50 [2], Nc1ccccc1NC1CCCCC1 has the entry 35.5 µM [falling, single point]

# Carrying on.

SMILES,AC50 [1],AC50 [2]
CC(C)(C)CC(C)(C)c1ccc(OCCO)cc1,–,"0.141 µM [rising, full curve, poor fit]"
COCCn1c(=O)[nH]c(=O)c2cc(C(=O)c3cc(Cl)ccc3O)cnc21,"0.0447 µM [rising, full curve, poor fit]","0.0398 µM [rising, full curve, poor fit]"
Cc1ccc(C(=O)Nc2cc(Cl)ccc2Oc2ccccc2)cc1[N+](=O)[O-],"0.0355 µM [rising, full curve, poor fit]",–
CCc1ccc(NC(=O)CCCc2nc(-c3ccco3)no2)cc1,"7.08 µM [falling, partial curve, poor fit]",–
O=C(Nc1ccc2nc(SCC(=O)N3CCCC3)sc2c1)c1ccccc1F,"1.41 µM [falling, partial curve]","7.08 µM [falling, partial curve, poor fit]"
O=C(Cc1cccs1)Nc1nc2c(s1)CCCC2,"28.2 µM [rising, single point]",–
Cc1cccc(C(=O)Nc2ccccc2SCC2CSc3nc4ccccc4c(=O)n32)c1 (stereo unspecified),"14.1 µM [rising, partial curve]",–
Cc1ccc2oc(Nc3nc(-c4ccccc4)cc(=O)[nH]3)nc2c1,–,"14.1 µM [rising, single point]"
CCOC(=O)c1cccc(N)c1,"1.12 µM [rising, full curve, poor fit]","35.5 µM [falling, single point]"
CCC(=O)Oc1ccc(NC(=O)CSCc2ccccc2)cc1,"0.0794 µM [rising, full curve, poor fit]",–
C#CCNC(=O)c1cccn1-c1ncc(C(F)(F)F)cc1Cl,–,"0.01 µM [falling, full curve, poor fit]"
Cc1ccc(NC(=O)CNC(=O)OCc2ccccc2)cc1C,–,"0.00316 µM [rising, full curve, poor fit]"
COC(=O)c1ccc(-c2ncc(-c3cccc4ccccc34)o2)cc1,–,"0.0562 µM [falling, full curve, poor fit]"
COc1ccc(Cc2nnc(N/N=C/c3ccccc3O)[nH]c2=O)cc1OC,"6.31 µM [rising, full curve]",–
CCn1c(SCc2ccccc2F)nc(=O)c2c(C(=O)OC)cc(C3CC3)nc21,"0.398 µM [rising, full curve, poor fit]","0.447 µM [rising, partial curve, poor fit]"
Cc1ccc2c(C)c(C(=O)Nc3c(C)n(C)n(-c4ccccc4)c3=O)oc2c1C,"10 µM [rising, partial curve]","3.98 µM [rising, partial curve]"
O=C(NCc1ccccc1Cl)C1CCN(S(=O)(=O)N2CCCCCC2)CC1,"35.5 µM [rising, single point]","35.5 µM [rising, single point]"
Cc1nn(CC(N)=O)c(=O)c2ccccc12,"14.1 µM [rising, single point]",–
COc1ccc(-c2c(S(=O)(=O)c3ccccc3)cnn2-c2ccccc2)cc1,"31.6 µM [rising, single point]",–
Oc1cccc(C(Nc2nccs2)c2ccc3cccnc3c2O)c1 (stereo unspecified),"31.6 µM [falling, single point]","25.1 µM [falling, single point]"

SMILES,AC50 [1],AC50 [2]
O=C(Nc1ccc(F)cc1)c1ccccc1F,"15.8 µM [rising, single point]",–
CCOC(=O)c1cnc2c(OC)cccc2c1Nc1ccc2c(c1)OCCO2,"20 µM [rising, single point]",–
COCCn1c(SCC(=O)Nc2nnc(C)s2)nnc1-c1cc2ccccc2cc1O,"0.02 µM [falling, full curve, poor fit]",–
Cc1cccc(C)c1NC(=O)C(c1ccccc1)N1CCN(C(=O)c2ccco2)CC1 (stereo unspecified),"0.0282 µM [falling, full curve]",–
CCOC(=O)c1c(C)sc2c1N(C(=O)CN(CC)CC)c1cc(Cl)ccc1S2,–,"35.5 µM [rising, single point]"
CCOC(=O)c1c(NC(=O)CN(CC)CC)sc2c1CCC2,"6.31 µM [falling, single point]",–
O=[N+]([O-])c1ccc(/C=N/N=C/c2ccc([N+](=O)[O-])o2)o1,"0.0112 µM [falling, full curve, poor fit]","5.62 µM [falling, partial curve]"
Cc1cccc(N(C(=O)CNC(=O)c2ccco2)C(C(=O)NC2CCCC2)c2cccnc2)c1 (stereo unspecified),"0.112 µM [falling, single point]",–
COc1cc2ccnc(Cc3cccc(OC)c3OC)c2cc1OC,–,"0.224 µM [falling, full curve, poor fit]"
Cc1cc(C)c2nc(NC(=O)c3ccc(OCC4CCCO4)cc3)sc2c1 (stereo unspecified),–,"0.0224 µM [rising, full curve, poor fit]"
Cc1ccc(NC(=S)NNc2ncc(C(F)(F)F)cc2Cl)cc1,"22.4 µM [rising, partial curve]",–
C=CCn1c(CCc2ccc(OC(C)C)cc2)n[nH]c1=S,"2.82 µM [falling, full curve]","3.98 µM [falling, full curve]"
O=C1CC(N2CCN(S(=O)(=O)c3cccc(C(F)(F)F)c3)CC2)C(=O)N1Cc1ccccc1 (stereo unspecified),"12.6 µM [rising, single point]",–
CCCNCC(O)COc1ccccc1C(=O)CCc1ccccc1 (stereo unspecified),"17.8 µM [rising, single point]","0.002 µM [falling, full curve, poor fit]"
Cc1ccc(CCNC(=O)c2ccc(CSCc3ccccc3C)o2)cc1,–,"0.316 µM [rising, full curve, poor fit]"
O=Nc1c(O)n(Cc2ccc(Cl)c(Cl)c2)c2ccccc12,"35.5 µM [falling, single point]","25.1 µM [falling, single point]"
COc1ccccc1CNC(=O)c1sc2nc3n(c(=O)c2c1C)CCC3,"7.94 µM [rising, partial curve, poor fit]","7.94 µM [rising, partial curve, poor fit]"
O=C(Nc1ccccc1C(=O)N1CCCCCC1)c1ccccc1Cl,"0.316 µM [rising, partial curve, poor fit]",–
